Data taken from patent publication US10434199B2, “Picolinate cross-bridged cyclams, chelates with metallic cations and use thereof” (UNIVERSITÉ DE BRETAGNE OCCIDENTALE, priority 2013, dated 2019).
The name of at least one read-out is uncertain.

Test: Copper(II) complex formation kinetics (UV-vis, buffered aqueous solutions)
Type: physicochemical
Details: pH=3, pseudo-first order, excess of 10 equivalents of metal cation
Experimental: Complex Formation. The formation of the copper(II) complex of Hcb-te1pa was studied in buffered aqueous solutions at 25° C. The increasing intensity of the complex d-d transition band in the visible range (600 nm) was followed at pH=5.0 (0.2 M potassium acetate buffer) and pH=7.4 (0.2 M HEPES buffer), with [Cu^2+]=[Hcb-te1pa]=0.8 mM. Additionally, complex formation was also studied at pH=3.0 (0.2 M (K,H)Cl) under pseudo-first order conditions, by following the increasing charge transfer band in the UV range (at 310 nm) at [Cu^2+]=10×[Hcb-te1pa]=2 mM.
The copper(II) complex formation with Hcb-te1pa was spectroscopically monitored in different buffered solutions from acidic to neutral pH. […] The reaction becomes progressively slower because of the increase of the acidity of the reaction media, enabling a kinetic study under pseudo-first order conditions using conventional UV-vis spectroscopic methods. In this work such kinetic study was performed at pH=3, which is at the lower limit of the pH range in which the copper(II) complexation is approximately complete under equilibrium in equimolar metal-to-ligand conditions.

## O=C(O)c1cccc(CN2CCCN3CCNCCCN(CC3)CC2)n1 [Hcb-te1pa, 6-(1,4,8,11-tetraazabicyclo[6.6.2]hexadecan-4-ylmethyl)picolinic acid]
  formation half-time (t1/2) of copper(II) complex: 1.7 min
